Measured values published in PMC3315461.
These are yes or no findings as the source states them, for the method shown. In cells and extracts the contact can be indirect. Some results given as binding are weak or reduced against the parent protein; the word gives no strength. Sequences can lack the tags named with a protein.

Amino acid sequences for entries named in this document (tags omitted).
UniProt Q07832: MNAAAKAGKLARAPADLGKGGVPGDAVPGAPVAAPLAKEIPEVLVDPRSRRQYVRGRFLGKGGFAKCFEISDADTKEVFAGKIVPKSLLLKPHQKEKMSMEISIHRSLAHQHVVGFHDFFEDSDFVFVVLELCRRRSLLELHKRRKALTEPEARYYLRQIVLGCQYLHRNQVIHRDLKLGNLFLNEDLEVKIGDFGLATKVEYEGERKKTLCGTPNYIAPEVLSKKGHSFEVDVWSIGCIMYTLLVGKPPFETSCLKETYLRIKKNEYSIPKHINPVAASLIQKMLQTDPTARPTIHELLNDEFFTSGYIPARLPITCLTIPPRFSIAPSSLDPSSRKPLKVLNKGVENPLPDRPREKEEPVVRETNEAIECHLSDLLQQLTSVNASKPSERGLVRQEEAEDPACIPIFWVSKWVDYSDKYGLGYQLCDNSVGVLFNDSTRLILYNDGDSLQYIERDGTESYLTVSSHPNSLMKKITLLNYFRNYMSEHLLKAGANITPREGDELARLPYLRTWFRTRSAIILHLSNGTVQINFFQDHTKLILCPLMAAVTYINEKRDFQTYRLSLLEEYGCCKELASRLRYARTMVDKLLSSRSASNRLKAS
UniProt P53350: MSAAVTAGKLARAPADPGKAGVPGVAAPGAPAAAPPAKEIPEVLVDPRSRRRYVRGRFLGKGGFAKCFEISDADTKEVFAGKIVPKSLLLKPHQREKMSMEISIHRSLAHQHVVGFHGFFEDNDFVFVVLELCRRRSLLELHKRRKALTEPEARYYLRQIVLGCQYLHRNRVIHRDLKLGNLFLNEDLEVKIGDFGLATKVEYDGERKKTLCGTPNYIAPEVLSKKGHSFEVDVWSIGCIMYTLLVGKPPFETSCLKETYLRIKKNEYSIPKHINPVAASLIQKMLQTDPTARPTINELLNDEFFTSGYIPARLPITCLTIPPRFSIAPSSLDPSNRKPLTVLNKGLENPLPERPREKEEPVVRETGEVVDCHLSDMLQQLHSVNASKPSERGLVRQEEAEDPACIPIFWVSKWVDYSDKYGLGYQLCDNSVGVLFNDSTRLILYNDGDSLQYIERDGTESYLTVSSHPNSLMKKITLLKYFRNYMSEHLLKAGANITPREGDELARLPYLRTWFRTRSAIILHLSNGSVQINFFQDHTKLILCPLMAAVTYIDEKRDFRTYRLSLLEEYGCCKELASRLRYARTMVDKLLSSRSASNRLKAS

Columns and labels:
[1] = target: T1, FLAG-tagged full-length Treacle (mouse Tcof1) (mouse) (UniProt O08784); assay: co-IP; as the co-IP of FLAG-tagged Treacle and HA-tagged Plk1, but with cell lysate prepared from asynchronized cells
T1 sequence: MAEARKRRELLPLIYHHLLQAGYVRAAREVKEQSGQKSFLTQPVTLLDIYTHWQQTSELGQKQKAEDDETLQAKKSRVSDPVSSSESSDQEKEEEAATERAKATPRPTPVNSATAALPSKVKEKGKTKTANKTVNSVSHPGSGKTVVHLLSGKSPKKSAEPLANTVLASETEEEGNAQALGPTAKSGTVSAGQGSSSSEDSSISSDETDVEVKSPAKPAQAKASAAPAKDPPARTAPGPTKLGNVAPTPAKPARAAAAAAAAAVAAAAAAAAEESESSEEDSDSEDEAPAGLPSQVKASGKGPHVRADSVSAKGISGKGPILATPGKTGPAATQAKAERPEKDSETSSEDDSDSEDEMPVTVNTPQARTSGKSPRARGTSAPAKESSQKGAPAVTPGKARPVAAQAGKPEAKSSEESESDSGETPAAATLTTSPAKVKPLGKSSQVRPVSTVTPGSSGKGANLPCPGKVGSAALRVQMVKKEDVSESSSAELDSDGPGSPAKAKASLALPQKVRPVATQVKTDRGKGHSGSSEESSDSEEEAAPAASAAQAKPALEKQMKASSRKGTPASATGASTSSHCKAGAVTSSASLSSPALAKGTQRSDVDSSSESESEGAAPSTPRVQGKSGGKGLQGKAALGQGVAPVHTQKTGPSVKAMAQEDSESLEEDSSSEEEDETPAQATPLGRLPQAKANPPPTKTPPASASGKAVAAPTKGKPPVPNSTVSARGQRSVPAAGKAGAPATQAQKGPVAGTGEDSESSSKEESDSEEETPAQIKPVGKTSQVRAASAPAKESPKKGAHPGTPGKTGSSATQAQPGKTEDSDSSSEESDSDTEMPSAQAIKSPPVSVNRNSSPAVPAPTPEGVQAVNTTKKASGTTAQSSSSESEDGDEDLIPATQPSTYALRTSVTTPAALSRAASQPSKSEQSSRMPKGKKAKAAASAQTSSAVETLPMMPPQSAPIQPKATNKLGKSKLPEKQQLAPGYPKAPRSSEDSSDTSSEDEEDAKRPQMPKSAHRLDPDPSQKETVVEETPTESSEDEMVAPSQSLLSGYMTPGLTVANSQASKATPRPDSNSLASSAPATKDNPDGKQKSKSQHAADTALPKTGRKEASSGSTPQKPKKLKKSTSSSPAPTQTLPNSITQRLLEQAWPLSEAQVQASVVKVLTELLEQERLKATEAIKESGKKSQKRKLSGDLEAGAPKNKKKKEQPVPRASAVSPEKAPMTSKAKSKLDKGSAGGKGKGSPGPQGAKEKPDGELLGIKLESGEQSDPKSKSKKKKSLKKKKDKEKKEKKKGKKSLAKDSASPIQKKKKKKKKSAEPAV

[2] = target: T1, FLAG-tagged full-length Treacle (mouse Tcof1) (mouse); assay: co-IP; HeLa cells transfected, synchronized by thymidine block, released 5 h, nocodazole (50 ng/ml) 14 h to obtain mitotic cells; lysis in 50 mM Tris-HCl pH 7.5, 150 mM NaCl, 1% NP-40, 5 mM EDTA; anti-FLAG agarose beads at 4°C overnight; elution with FLAG peptide; western blot with anti-HA, anti-PLK1 and anti-FLAG
[3] = target: T2, FLAG-tagged N-terminal part of Treacle (mouse Tcof1, amino acids 1-452) (mouse) (UniProt O08784); assay: as above
T2 sequence: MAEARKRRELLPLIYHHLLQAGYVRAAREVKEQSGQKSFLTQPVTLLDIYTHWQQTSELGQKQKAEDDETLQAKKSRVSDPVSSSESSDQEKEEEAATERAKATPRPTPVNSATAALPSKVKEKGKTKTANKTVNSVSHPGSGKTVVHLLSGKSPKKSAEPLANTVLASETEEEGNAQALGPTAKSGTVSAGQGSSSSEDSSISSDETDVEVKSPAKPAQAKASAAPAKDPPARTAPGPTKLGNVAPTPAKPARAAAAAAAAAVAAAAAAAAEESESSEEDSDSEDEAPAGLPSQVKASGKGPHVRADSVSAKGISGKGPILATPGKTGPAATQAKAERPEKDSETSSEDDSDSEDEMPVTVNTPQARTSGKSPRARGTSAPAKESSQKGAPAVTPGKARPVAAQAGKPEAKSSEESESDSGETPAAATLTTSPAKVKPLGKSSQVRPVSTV

binding [2] | binding [3] | Substance | binding [1]
binds |  | HA-tagged full-length Plk1 (mouse) (from UniProt Q07832 1-603) | no binding (condition: lysate from asynchronized cells)
binds | binds | endogenous PLK1 of HeLa cells (from UniProt P53350 1-603) | 
